# Source: ChEMBL document CHEMBL1909046, “DrugMatrix in vitro pharmacology data”
# Sequences of proteins named here, by UniProt entry; tags and fusion partners are left off. A change or cut given only in a name is not applied to a line headed by its entry.
# UniProt P13945: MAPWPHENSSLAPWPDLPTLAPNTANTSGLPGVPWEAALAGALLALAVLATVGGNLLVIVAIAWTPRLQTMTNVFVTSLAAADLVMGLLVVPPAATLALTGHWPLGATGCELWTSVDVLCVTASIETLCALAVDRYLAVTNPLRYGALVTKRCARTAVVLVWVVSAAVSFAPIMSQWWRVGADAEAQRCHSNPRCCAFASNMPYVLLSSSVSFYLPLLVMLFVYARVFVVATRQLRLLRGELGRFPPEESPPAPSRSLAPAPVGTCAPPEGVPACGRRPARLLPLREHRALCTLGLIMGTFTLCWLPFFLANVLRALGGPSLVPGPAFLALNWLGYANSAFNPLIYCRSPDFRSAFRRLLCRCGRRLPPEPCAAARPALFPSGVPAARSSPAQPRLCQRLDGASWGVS
# UniProt P50052: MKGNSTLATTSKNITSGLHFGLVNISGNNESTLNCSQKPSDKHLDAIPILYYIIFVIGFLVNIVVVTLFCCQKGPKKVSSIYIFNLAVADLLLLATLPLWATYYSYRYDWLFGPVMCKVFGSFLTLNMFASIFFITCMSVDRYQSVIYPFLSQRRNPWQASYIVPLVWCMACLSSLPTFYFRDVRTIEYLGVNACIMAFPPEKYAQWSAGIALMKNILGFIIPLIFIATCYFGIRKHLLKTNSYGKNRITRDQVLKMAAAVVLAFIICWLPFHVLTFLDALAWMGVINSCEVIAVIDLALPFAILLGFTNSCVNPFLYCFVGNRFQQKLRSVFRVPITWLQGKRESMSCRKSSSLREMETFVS
# UniProt P50406, whole entry: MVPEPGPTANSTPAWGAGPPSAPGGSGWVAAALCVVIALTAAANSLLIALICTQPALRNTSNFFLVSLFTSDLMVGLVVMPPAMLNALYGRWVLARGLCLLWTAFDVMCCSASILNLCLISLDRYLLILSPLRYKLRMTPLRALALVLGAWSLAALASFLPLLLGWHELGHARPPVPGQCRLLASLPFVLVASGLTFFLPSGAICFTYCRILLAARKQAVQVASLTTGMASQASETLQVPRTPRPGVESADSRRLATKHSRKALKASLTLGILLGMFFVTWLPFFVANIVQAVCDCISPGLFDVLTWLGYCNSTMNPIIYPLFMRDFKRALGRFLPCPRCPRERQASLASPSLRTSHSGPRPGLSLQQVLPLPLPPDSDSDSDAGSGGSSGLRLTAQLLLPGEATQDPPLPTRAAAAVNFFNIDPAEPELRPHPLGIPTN
# UniProt P32238, whole entry: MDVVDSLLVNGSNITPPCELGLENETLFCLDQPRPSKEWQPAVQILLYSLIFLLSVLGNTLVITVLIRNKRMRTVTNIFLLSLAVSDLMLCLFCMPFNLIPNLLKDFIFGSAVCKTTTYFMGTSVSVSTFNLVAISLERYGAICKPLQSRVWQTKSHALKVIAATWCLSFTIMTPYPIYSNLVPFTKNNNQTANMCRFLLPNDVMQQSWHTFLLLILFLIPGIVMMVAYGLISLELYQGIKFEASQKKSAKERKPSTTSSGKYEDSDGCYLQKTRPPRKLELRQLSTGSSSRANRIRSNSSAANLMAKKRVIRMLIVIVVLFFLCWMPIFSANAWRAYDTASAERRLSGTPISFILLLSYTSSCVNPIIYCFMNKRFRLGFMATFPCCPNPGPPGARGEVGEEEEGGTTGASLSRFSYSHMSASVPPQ
# UniProt P41968: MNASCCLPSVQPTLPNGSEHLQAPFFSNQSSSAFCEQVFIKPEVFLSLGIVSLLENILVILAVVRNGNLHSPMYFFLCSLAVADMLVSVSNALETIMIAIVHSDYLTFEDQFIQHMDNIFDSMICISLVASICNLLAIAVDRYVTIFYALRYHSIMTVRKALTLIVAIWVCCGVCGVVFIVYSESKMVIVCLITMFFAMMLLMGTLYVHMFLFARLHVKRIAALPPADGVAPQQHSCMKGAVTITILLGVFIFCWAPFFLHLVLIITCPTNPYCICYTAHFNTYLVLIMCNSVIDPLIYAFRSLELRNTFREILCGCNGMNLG
# UniProt P21397, whole entry: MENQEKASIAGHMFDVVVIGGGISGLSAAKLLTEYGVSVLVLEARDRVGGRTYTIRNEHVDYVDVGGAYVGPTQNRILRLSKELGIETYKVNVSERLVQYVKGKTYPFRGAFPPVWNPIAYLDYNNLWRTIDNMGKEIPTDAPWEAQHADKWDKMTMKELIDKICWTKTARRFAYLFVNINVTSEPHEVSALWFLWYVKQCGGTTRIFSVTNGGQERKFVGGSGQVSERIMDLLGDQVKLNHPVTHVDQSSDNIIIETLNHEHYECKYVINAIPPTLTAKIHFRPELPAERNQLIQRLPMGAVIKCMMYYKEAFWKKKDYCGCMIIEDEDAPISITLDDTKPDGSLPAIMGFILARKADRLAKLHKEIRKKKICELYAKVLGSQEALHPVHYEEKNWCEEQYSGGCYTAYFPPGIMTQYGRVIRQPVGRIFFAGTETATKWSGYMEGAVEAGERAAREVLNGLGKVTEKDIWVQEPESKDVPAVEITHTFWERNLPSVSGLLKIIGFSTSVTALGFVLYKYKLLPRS
# UniProt P25929, whole entry: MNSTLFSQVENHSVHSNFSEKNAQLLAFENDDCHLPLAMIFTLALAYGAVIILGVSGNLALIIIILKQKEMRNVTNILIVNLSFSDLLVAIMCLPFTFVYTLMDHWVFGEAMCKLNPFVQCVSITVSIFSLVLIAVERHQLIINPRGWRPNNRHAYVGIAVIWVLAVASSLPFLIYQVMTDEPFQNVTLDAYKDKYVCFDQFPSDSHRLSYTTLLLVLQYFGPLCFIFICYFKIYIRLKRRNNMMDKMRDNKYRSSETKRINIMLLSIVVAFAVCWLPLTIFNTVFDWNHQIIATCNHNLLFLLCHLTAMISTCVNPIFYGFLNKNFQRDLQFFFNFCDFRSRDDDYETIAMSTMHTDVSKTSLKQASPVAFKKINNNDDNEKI
# UniProt P29476, whole entry: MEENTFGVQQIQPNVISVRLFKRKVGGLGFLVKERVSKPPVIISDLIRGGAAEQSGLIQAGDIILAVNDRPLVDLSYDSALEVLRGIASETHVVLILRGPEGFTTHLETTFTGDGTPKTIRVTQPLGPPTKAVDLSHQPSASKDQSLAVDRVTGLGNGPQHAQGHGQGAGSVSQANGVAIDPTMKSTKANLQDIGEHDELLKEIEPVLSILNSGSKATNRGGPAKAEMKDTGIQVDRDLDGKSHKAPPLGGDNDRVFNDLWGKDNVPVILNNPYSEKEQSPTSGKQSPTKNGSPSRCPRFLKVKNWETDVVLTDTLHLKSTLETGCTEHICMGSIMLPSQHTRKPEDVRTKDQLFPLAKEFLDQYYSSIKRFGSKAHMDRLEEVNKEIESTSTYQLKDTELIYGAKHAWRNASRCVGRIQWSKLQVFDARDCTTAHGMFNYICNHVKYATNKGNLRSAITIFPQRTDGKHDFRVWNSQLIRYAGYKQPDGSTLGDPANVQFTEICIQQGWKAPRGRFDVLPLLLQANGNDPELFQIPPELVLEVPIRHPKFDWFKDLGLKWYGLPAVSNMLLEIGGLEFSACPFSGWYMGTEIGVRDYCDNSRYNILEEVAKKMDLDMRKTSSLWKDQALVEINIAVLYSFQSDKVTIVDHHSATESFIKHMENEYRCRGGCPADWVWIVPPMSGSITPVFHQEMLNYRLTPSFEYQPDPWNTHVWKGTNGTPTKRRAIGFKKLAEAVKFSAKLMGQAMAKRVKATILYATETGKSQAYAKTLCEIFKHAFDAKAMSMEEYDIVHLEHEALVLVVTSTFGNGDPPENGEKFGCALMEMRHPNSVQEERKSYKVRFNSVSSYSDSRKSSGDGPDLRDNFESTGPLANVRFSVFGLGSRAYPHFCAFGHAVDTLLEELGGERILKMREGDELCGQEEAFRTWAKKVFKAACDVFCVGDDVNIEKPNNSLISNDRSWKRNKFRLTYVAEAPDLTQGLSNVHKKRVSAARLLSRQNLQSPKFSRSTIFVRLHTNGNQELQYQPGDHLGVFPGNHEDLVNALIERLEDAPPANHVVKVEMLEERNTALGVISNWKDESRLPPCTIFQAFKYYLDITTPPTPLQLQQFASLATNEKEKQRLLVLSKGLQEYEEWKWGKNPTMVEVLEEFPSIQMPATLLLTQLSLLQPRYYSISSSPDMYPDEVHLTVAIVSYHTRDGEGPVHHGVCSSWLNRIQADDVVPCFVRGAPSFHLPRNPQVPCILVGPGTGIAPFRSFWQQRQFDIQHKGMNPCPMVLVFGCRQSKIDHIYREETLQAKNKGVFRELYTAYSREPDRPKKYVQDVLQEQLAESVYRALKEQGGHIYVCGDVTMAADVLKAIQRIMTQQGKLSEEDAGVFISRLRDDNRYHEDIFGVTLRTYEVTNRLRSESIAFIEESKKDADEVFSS
# UniProt P29477: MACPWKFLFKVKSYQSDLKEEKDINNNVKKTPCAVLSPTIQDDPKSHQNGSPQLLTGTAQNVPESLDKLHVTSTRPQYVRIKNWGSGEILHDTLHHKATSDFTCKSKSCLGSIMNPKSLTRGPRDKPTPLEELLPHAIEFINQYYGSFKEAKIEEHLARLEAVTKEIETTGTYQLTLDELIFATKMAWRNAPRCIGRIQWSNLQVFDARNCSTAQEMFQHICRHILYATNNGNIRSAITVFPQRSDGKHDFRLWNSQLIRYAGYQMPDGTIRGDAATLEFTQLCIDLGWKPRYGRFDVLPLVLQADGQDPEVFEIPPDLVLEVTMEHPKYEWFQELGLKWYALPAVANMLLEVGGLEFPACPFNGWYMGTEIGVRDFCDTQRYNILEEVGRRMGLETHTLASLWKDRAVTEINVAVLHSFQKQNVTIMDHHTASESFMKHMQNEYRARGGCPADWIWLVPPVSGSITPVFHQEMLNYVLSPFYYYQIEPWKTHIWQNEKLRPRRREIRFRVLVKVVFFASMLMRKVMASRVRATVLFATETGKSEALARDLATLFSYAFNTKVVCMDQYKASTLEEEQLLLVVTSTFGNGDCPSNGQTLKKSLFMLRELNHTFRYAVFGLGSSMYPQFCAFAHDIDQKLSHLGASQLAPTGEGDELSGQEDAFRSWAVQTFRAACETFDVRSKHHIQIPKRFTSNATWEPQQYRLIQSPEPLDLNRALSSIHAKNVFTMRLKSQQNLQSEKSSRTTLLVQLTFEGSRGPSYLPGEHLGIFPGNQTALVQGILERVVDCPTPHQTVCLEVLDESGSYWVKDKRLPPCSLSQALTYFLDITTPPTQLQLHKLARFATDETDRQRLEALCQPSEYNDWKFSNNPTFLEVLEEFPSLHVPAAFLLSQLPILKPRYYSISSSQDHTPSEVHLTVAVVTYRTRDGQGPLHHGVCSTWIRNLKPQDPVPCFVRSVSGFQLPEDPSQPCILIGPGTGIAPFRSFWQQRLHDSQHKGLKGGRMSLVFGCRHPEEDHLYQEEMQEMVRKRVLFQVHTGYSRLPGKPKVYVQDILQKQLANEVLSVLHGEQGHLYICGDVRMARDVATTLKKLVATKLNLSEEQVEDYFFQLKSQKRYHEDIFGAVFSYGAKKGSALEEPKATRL
# UniProt P08311: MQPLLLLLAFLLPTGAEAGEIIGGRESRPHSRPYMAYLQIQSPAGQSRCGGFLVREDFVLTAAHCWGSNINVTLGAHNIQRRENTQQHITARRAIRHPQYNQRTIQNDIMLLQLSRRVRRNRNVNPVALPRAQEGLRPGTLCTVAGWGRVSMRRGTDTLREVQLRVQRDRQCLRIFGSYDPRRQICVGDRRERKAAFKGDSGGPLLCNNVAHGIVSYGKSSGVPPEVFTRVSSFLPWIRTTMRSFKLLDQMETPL
# UniProt Q16539, whole entry: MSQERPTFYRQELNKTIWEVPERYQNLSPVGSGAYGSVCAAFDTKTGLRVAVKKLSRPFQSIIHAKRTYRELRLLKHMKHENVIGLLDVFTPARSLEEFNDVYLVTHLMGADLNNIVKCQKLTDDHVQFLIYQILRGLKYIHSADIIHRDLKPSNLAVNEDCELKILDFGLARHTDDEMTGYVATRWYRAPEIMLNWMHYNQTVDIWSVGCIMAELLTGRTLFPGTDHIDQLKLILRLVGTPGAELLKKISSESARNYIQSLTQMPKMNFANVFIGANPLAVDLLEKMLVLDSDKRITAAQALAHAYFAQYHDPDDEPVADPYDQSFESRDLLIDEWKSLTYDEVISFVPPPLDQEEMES
# UniProt P33261, whole entry: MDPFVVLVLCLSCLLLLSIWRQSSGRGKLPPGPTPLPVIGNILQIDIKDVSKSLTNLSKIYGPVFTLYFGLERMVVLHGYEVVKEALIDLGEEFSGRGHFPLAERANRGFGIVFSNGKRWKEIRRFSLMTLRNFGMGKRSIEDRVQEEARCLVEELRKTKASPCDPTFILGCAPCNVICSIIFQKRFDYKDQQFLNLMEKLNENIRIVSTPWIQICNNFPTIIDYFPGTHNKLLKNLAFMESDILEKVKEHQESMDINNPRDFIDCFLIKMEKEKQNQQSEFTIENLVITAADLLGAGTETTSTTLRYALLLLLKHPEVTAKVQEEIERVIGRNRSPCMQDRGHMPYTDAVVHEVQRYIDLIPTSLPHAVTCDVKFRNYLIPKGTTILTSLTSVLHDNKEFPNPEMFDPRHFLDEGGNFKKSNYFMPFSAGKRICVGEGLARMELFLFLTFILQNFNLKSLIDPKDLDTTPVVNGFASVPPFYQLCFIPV
# Tests used:
# [1] = DRUGMATRIX: Sodium/nucleoside co-transporter radioligand binding (ligand: nitrobenzylthioinosine); assay type: cell membranes, Cavia porcellus, Dunkin-Hartley, Cerebral cortex, Membrane; details: Not Active = under 50% inhibition at 10 µM
# [2] = DRUGMATRIX: beta-Lactamase enzyme inhibition (substrate: Nitrocefin); parameters: species or system Bacillus cereus; details: Not Active = under 50% inhibition at 10 µM
# [3] = DRUGMATRIX: Serotonin (5-Hydroxytryptamine) 5-HT3 radioligand binding (ligand: [3H] GR-65630); assay type: cell membranes, Membrane; details: hek293; Not Active = under 50% inhibition at 10 µM
# [4] = DRUGMATRIX: GABAA, Muscimol, Central radioligand binding (ligand: [3H] Muscimol); assay type: cell membranes, Rattus norvegicus, Wistar, Brain, Membrane; details: Not Active = under 50% inhibition at 10 µM
# [5] = DRUGMATRIX: GABAA, Flunitrazepam, Central radioligand binding (ligand: [3H] Flunitrazepam); assay type: cell membranes, Rattus norvegicus, Wistar, Brain, Membrane; details: Not Active = under 50% inhibition at 10 µM
# [6] = DRUGMATRIX: GABAA, Chloride Channel, TBOB radioligand binding (ligand: [3H] TBOB); assay type: cell membranes, Rattus norvegicus, Wistar, Cerebral cortex, Membrane; details: Not Active = under 50% inhibition at 10 µM
# [7] = DRUGMATRIX: Glutamate, AMPA radioligand binding (ligand: [3H] AMPA); assay type: cell membranes, Rattus norvegicus, Wistar, Cerebral cortex, Membrane; details: Not Active = under 50% inhibition at 10 µM
# [8] = DRUGMATRIX: Imidazoline I2, Central radioligand binding (ligand: [3H] Idazoxan); assay type: cell membranes, Rattus norvegicus, Wistar, Cerebral cortex, Membrane; details: Not Active = under 50% inhibition at 10 µM
# [9] = DRUGMATRIX: Interleukin IL-1 radioligand binding (ligand: [125I] interleukin 1beta); assay type: cell membranes, Membrane; details: nih3t3; Not Active = under 50% inhibition at 10 µM
# [10] = DRUGMATRIX: Leukotriene, BLT (LTB4) radioligand binding (ligand: [3H]LTB4); assay type: cell membranes, Membrane; details: u-937; Not Active = under 50% inhibition at 10 µM
# [11] = DRUGMATRIX: Phosphodiesterase PDE3 enzyme inhibition (substrate: [3H]cAMP + cAMP); assay type: tissue-based, Homo sapiens; details: platelet; Not Active = under 50% inhibition at 10 µM
# [12] = DRUGMATRIX: Phosphodiesterase PDE4 enzyme inhibition (substrate: [3H]cAMP + cAMP); details: u-937; Not Active = under 50% inhibition at 10 µM
# [13] = target: Beta-3 adrenergic receptor (Homo sapiens, UniProt P13945); assay: DRUGMATRIX: Adrenergic beta3 radioligand binding (ligand: [125I] Cyanopindolol); assay type: cell membranes, HEK293, Membrane; details: Not Active = under 50% inhibition at 10 µM
# [14] = target: Aldo-keto reductase family 1 member B1 (Rattus norvegicus, UniProt P07943); assay type: tissue-based, Lens of camera-type eye;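 further: inhibition of aldose reductase enzyme activity, measured with DL-glyceraldehyde as the substrate; in other assays of this panel Not Active means under 50% inhibition at 10 µM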
# [15] = target: Type-2 angiotensin II receptor (Homo sapiens, UniProt P50052); assay type: cell-based; details: cho-k1; further: in other assays of this panel Not Active means under 50% inhibition at 10 µM
# [16] = target: Calcitonin receptor (Homo sapiens, UniProt P30988); assay type: cell membranes, Membrane; details: t47d; further: in other assays of this panel Not Active means under 50% inhibition at 10 µM
# [17] = target: 5-hydroxytryptamine receptor 6 (Homo sapiens, UniProt P50406); assay type: cell membranes, HeLa, Membrane; further: in other assays of this panel Not Active means under 50% inhibition at 10 µM
# [18] = target: C-C chemokine receptor type 2 (Homo sapiens, UniProt P41597); assay type: cell membranes, Membrane; details: cho-k1; further: in other assays of this panel Not Active means under 50% inhibition at 10 µM
# [19] = target: C-X-C chemokine receptor type 1 (Homo sapiens, UniProt P25024); further: in other assays of this panel Not Active means under 50% inhibition at 10 µM
# [20] = target: Cholecystokinin receptor type A (Homo sapiens, UniProt P32238); assay type: cell membranes, Membrane; details: 1321-n1; further: in other assays of this panel Not Active means under 50% inhibition at 10 µM
# [21] = target: D(3) dopamine receptor (Homo sapiens, UniProt P35462); assay: DRUGMATRIX: Dopamine D3 radioligand binding (ligand: [3H] Spiperone); assay type: cell membranes, CHO, Membrane
# [22] = target: Endothelin-1 receptor (Homo sapiens, UniProt P25101); assay type: cell membranes, Membrane; details: cho-k1; further: in other assays of this panel Not Active means under 50% inhibition at 10 µM
# [23] = target: Leukotriene C4 synthase (Cavia porcellus, UniProt A6XA80); assay type: tissue-based, Lung
# [24] = target: Cysteinyl leukotriene receptor 1 (Homo sapiens, UniProt Q9Y271); assay type: cell membranes, Membrane; details: cho-k1; further: in other assays of this panel Not Active means under 50% inhibition at 10 µM
# [25] = target: Melanocortin receptor 3 (Homo sapiens, UniProt P41968); assay type: cell membranes, Membrane; details: hek293; further: in other assays of this panel Not Active means under 50% inhibition at 10 µM
# [26] = target: Amine oxidase [flavin-containing] A (Homo sapiens, UniProt P21397); assay: DRUGMATRIX: Monoamine Oxidase MAO-A enzyme inhibition (substrate: Kynuramine); details: bti-tn-5b1-4; Not Active = under 50% inhibition at 10 µM
# [27] = target: Neuropeptide Y receptor type 1 (Homo sapiens, UniProt P25929); assay type: cell membranes, Membrane; details: sk-n-mc; further: in other assays of this panel Not Active means under 50% inhibition at 10 µM
# [28] = target: Neuropeptide Y receptor type 2 (Homo sapiens, UniProt P49146); assay type: cell membranes, Membrane; details: kan-ts; further: in other assays of this panel Not Active means under 50% inhibition at 10 µM
# [29] = target: Nitric oxide synthase 1 (Rattus norvegicus, UniProt P29476); assay type: tissue-based, Cerebellum; further: in other assays of this panel Not Active means under 50% inhibition at 10 µM
# [30] = target: Nitric oxide synthase, inducible (Mus musculus, UniProt P29477); parameters: species or system Escherichia coli
# [31] = target: Delta-type opioid receptor (Homo sapiens, UniProt P41143); assay type: cell membranes, Membrane; details: hek293; further: in other assays of this panel Not Active means under 50% inhibition at 10 µM
# [32] = target: Kappa-type opioid receptor (Homo sapiens, UniProt P41145); assay: DRUGMATRIX: Opiate kappa (OP2, KOP) radioligand binding (ligand: [3H] Diprenorphine); assay type: cell membranes, Membrane; details: hek293; Not Active = under 50% inhibition at 10 µM
# [33] = target: Caspase-1 (Homo sapiens, UniProt P29466); parameters: species or system Escherichia coli
# [34] = target: Cathepsin G (Homo sapiens, UniProt P08311); assay type: tissue-based; details: neutrophil
# [35] = target: Interstitial collagenase (Homo sapiens, UniProt P03956); assay type: tissue-based, Rheumatoid synovial fibroblasts
# [36] = target: Matrix metalloproteinase-9 (Homo sapiens, UniProt P14780); assay type: cell-based
# [37] = target: Mitogen-activated protein kinase 14 (Homo sapiens, UniProt Q16539); parameters: species or system Escherichia coli
# [38] = target: Tyrosine-protein kinase Fyn (Homo sapiens, UniProt P06241); assay type: cell-based; details: insect cells
# [39] = target: Cytochrome P450 2C19 (Homo sapiens, UniProt P33261); details: bti-tn-5b1-4; further: in other assays of this panel Not Active means under 50% inhibition at 10 µM
# [40] = target: Estrogen receptor beta (Homo sapiens, UniProt Q92731); details: sf9; further: in other assays of this panel Not Active means under 50% inhibition at 10 µM
smiles,measurement,setting,value
C=CCN1CC[C@]23c4c5ccc(O)c4O[C@H]2C(=O)CC[C@@]3(O)[C@H]1C5 [NALOXONE],IC50,[1],Not Active
same,Ki,[1],Not Active
same,IC50,[2],Not Active
same,Ki,[2],Not Active
same,IC50,[3],Not Active
same,Ki,[3],Not Active
same,IC50,[4],Not Active
same,Ki,[4],Not Active
same,IC50,[5],Not Active
same,Ki,[5],Not Active
same,IC50,[6],Not Active
same,Ki,[6],Not Active
same,IC50,[7],Not Active
same,Ki,[7],Not Active
same,IC50,[8],Not Active
same,Ki,[8],Not Active
same,IC50,[9],Not Active
same,Ki,[9],Not Active
same,IC50,[10],Not Active
same,Ki,[10],Not Active
same,IC50,[11],Not Active
same,Ki,[11],Not Active
same,IC50,[12],Not Active
same,Ki,[12],Not Active
CCCCCCCCc1ccc(O)cc1 [4-OCTYLPHENOL],IC50,[13]; hek293,Not Active
same,IC50,[14],Not Active
same,IC50,[15],Not Active
same,IC50,[16],Not Active
same,IC50,[17]; hela,Not Active
same,IC50,[18],Not Active
same,IC50,[19],Not Active
same,IC50,[20],Not Active
same,IC50,[21]; cho,Not Active
same,IC50,[22],Not Active
same,IC50,[23],Not Active
same,IC50,[24],Not Active
same,IC50,[25],Not Active
same,IC50,[26],Not Active
same,IC50,[27],Not Active
same,IC50,[28],Not Active
same,IC50,[29],Not Active
same,IC50,[30],Not Active
same,IC50,[31],Not Active
same,IC50,[32],Not Active
same,IC50,[33],Not Active
same,IC50,[34],Not Active
same,IC50,[35],Not Active
same,IC50,[36],Not Active
same,Ki,[37],Note: corresponding IC50 reported as Active
same,IC50,[38],Not Active
same,IC50,[39],Not Active
same,Ki,[39],Not Active
same,IC50,[40],Not Active
CC(C)(C)c1ccc(C(=O)CCCN2CCC(OC(c3ccccc3)c3ccccc3)CC2)cc1 [EBASTINE],Ki,[13],1.91 µM
same,IC50,[13]; read-out: IC50,2.55 µM
same,IC50,[14],Not Active
same,IC50,[15],Not Active
same,IC50,[16],Not Active
same,Ki,[17],1.02 µM
same,IC50,[17]; read-out: IC50,2.2 µM
same,IC50,[18],Not Active
same,IC50,[19],Not Active
same,IC50,[20],Not Active
same,Ki,[21],0.0413 µM
same,IC50,[21]; read-out: IC50,0.122 µM
same,IC50,[22],Not Active
same,IC50,[23],Not Active
same,IC50,[24],Not Active
same,IC50,[25],Not Active
same,IC50,[26],Not Active
same,IC50,[27],Not Active
same,IC50,[28],Not Active
same,IC50,[29],Not Active
same,IC50,[30],Not Active
same,IC50,[31],Not Active
same,IC50,[32],Not Active
same,IC50,[33],Not Active
same,IC50,[34],Not Active
same,IC50,[35],Not Active
same,IC50,[36],Not Active
same,IC50,[37],Not Active
same,Ki,[38],Note: corresponding IC50 reported as Active
same,IC50,[39],Not Active
same,Ki,[39],Not Active
same,IC50,[40],Not Active
CC(C)NCC(O)COc1cccc2ccccc12 (centres undefined) [PROPRANOLOL],IC50,[1],Not Active
same,Ki,[1],Not Active
same,IC50,[2],Not Active
same,Ki,[2],Not Active
same,IC50,[3],Not Active
same,Ki,[3],Not Active
same,IC50,[4],Not Active
same,Ki,[4],Not Active
same,IC50,[5],Not Active
same,Ki,[5],Not Active
same,IC50,[6],Not Active
same,Ki,[6],Not Active
same,IC50,[7],Not Active
same,Ki,[7],Not Active
same,IC50,[8],Not Active
same,Ki,[8],Not Active
same,IC50,[9],Not Active
same,Ki,[9],Not Active
same,IC50,[10],Not Active
same,Ki,[10],Not Active
same,IC50,[11],Not Active
same,Ki,[11],Not Active
same,IC50,[12],Not Active
same,Ki,[12],Not Active
